Measurements reported in PubChem BioAssay AID1259308 (NCATS, 2017)
In all, the deposit lists about 59,000 reagents; this is a part drawn at random. Over the whole deposit, about 1,510 (2.6%) were called active. 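Calls use total luciferase alone and ignore viability, so some active siRNAs may act by altering cell number.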 Unmarked entries are inactive. Reagents against one gene are numbered here. Further read-outs or replicates are left out here.

Purpose: 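Knock-downs that increase output of a recombinant reporter protein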 (primary screen)
Cell system: human HEK293 embryonic kidney cells stably expressing firefly luciferase (HEK-CMV-Luc2-Hygro)
Reagent: single siRNA against human genes, 0.8 pmol siRNA per well
Duration: 72 h
Measured: 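Luciferase light (ONE-Glo) measured on one replicate plate set and viability (CellTiter-Glo) on the other, scaled to a negative control siRNA, with robust z-scores and luciferase per cell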
Direction: total luciferase, z-score and total luciferase, % of control: higher = more reporter protein produced
Active means: 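Active when the median/MAD z-score for overall luciferase is greater than 3; a gene was taken forward for validation with new siRNAs if at least two of its three siRNAs passed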
Meaning of the calls: active = raised luciferase; inactive = no rise

{"target gene":"TTLL13 (tubulin tyrosine ligase like 13)","siRNA no.":1,"total luciferase, z-score":-0.798,"total luciferase, % of control":66}
{"target gene":"TTLL13 (tubulin tyrosine ligase like 13)","siRNA no.":2,"total luciferase, z-score":0.29,"total luciferase, % of control":87.6}
{"target gene":"TTLL13 (tubulin tyrosine ligase like 13)","siRNA no.":3,"total luciferase, z-score":-2.8,"total luciferase, % of control":26.1}
{"target gene":"NUP62CL (nucleoporin 62 C-terminal like)","siRNA no.":1,"total luciferase, z-score":0.675,"total luciferase, % of control":95.3}
{"target gene":"NUP62CL (nucleoporin 62 C-terminal like)","siRNA no.":2,"total luciferase, z-score":-1,"total luciferase, % of control":62}
{"target gene":"NUP62CL (nucleoporin 62 C-terminal like)","siRNA no.":3,"total luciferase, z-score":-0.352,"total luciferase, % of control":74.9}
{"target gene":"HEATR5B (HEAT repeat containing 5B)","siRNA no.":1,"total luciferase, z-score":-0.438,"total luciferase, % of control":73.2}
{"target gene":"HEATR5B (HEAT repeat containing 5B)","siRNA no.":2,"total luciferase, z-score":0.213,"total luciferase, % of control":86.1}
{"target gene":"HEATR5B (HEAT repeat containing 5B)","siRNA no.":3,"total luciferase, z-score":0.0544,"total luciferase, % of control":83}
{"target gene":"FOXN3 (forkhead box N3)","siRNA no.":1,"total luciferase, z-score":-0.696,"total luciferase, % of control":68}
{"target gene":"FOXN3 (forkhead box N3)","siRNA no.":2,"total luciferase, z-score":0.794,"total luciferase, % of control":97.7}
{"target gene":"FOXN3 (forkhead box N3)","siRNA no.":3,"total luciferase, z-score":0.293,"total luciferase, % of control":87.7}
{"target gene":"MMP3 (matrix metallopeptidase 3)","siRNA no.":1,"total luciferase, z-score":0.918,"total luciferase, % of control":100}
{"target gene":"MMP3 (matrix metallopeptidase 3)","siRNA no.":2,"total luciferase, z-score":1.52,"total luciferase, % of control":112}
{"target gene":"MMP3 (matrix metallopeptidase 3)","siRNA no.":3,"total luciferase, z-score":-1.06,"total luciferase, % of control":60.8}

A portion taken from the entries so far, for reference:
{"target gene":"NUP62CL (nucleoporin 62 C-terminal like)","siRNA no.":3,"total luciferase, z-score":-0.352,"total luciferase, % of control":74.9}
{"target gene":"HEATR5B (HEAT repeat containing 5B)","siRNA no.":1,"total luciferase, z-score":-0.438,"total luciferase, % of control":73.2}
{"target gene":"HEATR5B (HEAT repeat containing 5B)","siRNA no.":2,"total luciferase, z-score":0.213,"total luciferase, % of control":86.1}
{"target gene":"HEATR5B (HEAT repeat containing 5B)","siRNA no.":3,"total luciferase, z-score":0.0544,"total luciferase, % of control":83}
{"target gene":"FOXN3 (forkhead box N3)","siRNA no.":1,"total luciferase, z-score":-0.696,"total luciferase, % of control":68}

The results go on:
{"target gene":"ABCA5 (ATP binding cassette subfamily A member 5)","siRNA no.":1,"total luciferase, z-score":0.489,"total luciferase, % of control":91.6}
{"target gene":"ABCA5 (ATP binding cassette subfamily A member 5)","siRNA no.":2,"total luciferase, z-score":-1.37,"total luciferase, % of control":54.6}
{"target gene":"ABCA5 (ATP binding cassette subfamily A member 5)","siRNA no.":3,"total luciferase, z-score":-0.804,"total luciferase, % of control":65.9}
{"target gene":"RPRD1B (regulation of nuclear pre-mRNA domain containing 1B)","siRNA no.":1,"total luciferase, z-score":-0.785,"total luciferase, % of control":66.3}
{"target gene":"RPRD1B (regulation of nuclear pre-mRNA domain containing 1B)","siRNA no.":2,"total luciferase, z-score":-0.69,"total luciferase, % of control":68.2}
{"target gene":"RPRD1B (regulation of nuclear pre-mRNA domain containing 1B)","siRNA no.":3,"total luciferase, z-score":-0.369,"total luciferase, % of control":74.6}
{"target gene":"DOCK10 (dedicator of cytokinesis 10)","siRNA no.":1,"total luciferase, z-score":0.444,"total luciferase, % of control":90.7}
{"target gene":"DOCK10 (dedicator of cytokinesis 10)","siRNA no.":2,"total luciferase, z-score":-1.84,"total luciferase, % of control":45.3}
{"target gene":"DOCK10 (dedicator of cytokinesis 10)","siRNA no.":3,"total luciferase, z-score":0.492,"total luciferase, % of control":91.7}
{"target gene":"ZNF830 (zinc finger protein 830)","siRNA no.":1,"total luciferase, z-score":-0.142,"total luciferase, % of control":79.1}
{"target gene":"ZNF830 (zinc finger protein 830)","siRNA no.":2,"total luciferase, z-score":-0.642,"total luciferase, % of control":69.1}
{"target gene":"ZNF830 (zinc finger protein 830)","siRNA no.":3,"total luciferase, z-score":0.0499,"total luciferase, % of control":82.9}
{"target gene":"FBLN7 (fibulin 7)","siRNA no.":1,"total luciferase, z-score":-0.69,"total luciferase, % of control":68.2}
{"target gene":"FBLN7 (fibulin 7)","siRNA no.":2,"total luciferase, z-score":1.81,"total luciferase, % of control":118}
{"target gene":"FBLN7 (fibulin 7)","siRNA no.":3,"total luciferase, z-score":0.114,"total luciferase, % of control":84.1}
{"target gene":"RBM22 (RNA binding motif protein 22)","siRNA no.":1,"total luciferase, z-score":"4.12 (active)","total luciferase, % of control":164}
{"target gene":"RBM22 (RNA binding motif protein 22)","siRNA no.":2,"total luciferase, z-score":"3.52 (active)","total luciferase, % of control":152}
{"target gene":"RBM22 (RNA binding motif protein 22)","siRNA no.":3,"total luciferase, z-score":-0.062,"total luciferase, % of control":80.7}
